Laboratory results taken from the supplement of paper PMC12823440, “Inhibitors supercharge kinase turnover through native proteolytic circuits” (Nature, 2025).
Counter-ions that a name gives are not always drawn. The list shows a part of the results. The calls rarely recur for the same compound in another form.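 Kinases, fused to nanoluciferase, were expressed in K562 cells; luminescence was measured every 4 h from 2 to 18 h as percent of control (DMSO = 100%, positive control = 0%). A time point is decreased if signal falls significantly (2 sigma). Hits were called by the authors by a rule that is not shown; the count of time points alone does not decide it.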

The chains behind the UniProt entries cited, without tags or fusion partners. Where a name states a change or a piece, a line headed by the entry shows the natural chain unless it says otherwise.
UniProt P36888, whole entry: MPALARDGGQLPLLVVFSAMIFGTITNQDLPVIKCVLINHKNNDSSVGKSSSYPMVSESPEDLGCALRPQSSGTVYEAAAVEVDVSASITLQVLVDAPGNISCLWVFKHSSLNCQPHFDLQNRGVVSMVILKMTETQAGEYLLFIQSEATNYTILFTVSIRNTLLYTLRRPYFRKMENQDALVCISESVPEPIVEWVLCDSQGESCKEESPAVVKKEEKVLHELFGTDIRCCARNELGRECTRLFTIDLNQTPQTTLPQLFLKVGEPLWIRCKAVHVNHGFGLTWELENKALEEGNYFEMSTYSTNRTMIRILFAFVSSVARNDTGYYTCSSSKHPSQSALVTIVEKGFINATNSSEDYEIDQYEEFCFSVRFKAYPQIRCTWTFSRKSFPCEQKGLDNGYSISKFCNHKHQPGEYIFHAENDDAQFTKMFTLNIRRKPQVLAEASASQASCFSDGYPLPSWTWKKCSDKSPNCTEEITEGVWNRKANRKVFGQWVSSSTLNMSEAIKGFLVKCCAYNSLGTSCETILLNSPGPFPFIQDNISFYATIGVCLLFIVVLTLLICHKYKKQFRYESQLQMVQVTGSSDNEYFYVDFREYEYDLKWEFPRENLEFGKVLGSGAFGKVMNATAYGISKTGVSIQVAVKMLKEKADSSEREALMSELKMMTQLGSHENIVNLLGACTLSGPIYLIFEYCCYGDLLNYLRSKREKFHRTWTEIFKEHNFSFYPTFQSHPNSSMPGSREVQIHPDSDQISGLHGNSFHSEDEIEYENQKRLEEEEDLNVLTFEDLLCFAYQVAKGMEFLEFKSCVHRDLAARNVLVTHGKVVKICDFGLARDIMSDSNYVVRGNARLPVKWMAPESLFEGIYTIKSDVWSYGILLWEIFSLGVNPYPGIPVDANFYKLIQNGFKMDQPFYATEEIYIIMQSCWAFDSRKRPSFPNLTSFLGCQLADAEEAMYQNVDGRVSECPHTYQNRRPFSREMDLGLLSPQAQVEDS
UniProt P49840: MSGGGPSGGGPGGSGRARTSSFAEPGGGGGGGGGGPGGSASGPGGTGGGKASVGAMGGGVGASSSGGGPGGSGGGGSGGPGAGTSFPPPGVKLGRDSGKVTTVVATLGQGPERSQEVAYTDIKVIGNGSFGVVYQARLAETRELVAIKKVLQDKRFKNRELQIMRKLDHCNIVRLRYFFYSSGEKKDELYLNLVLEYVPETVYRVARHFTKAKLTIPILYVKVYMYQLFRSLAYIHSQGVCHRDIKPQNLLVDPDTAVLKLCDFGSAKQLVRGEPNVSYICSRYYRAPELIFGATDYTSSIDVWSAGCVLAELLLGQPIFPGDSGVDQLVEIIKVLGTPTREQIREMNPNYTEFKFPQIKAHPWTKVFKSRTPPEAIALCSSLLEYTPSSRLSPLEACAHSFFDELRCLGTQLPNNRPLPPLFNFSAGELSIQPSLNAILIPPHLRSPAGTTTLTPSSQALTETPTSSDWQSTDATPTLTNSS
UniProt P14616: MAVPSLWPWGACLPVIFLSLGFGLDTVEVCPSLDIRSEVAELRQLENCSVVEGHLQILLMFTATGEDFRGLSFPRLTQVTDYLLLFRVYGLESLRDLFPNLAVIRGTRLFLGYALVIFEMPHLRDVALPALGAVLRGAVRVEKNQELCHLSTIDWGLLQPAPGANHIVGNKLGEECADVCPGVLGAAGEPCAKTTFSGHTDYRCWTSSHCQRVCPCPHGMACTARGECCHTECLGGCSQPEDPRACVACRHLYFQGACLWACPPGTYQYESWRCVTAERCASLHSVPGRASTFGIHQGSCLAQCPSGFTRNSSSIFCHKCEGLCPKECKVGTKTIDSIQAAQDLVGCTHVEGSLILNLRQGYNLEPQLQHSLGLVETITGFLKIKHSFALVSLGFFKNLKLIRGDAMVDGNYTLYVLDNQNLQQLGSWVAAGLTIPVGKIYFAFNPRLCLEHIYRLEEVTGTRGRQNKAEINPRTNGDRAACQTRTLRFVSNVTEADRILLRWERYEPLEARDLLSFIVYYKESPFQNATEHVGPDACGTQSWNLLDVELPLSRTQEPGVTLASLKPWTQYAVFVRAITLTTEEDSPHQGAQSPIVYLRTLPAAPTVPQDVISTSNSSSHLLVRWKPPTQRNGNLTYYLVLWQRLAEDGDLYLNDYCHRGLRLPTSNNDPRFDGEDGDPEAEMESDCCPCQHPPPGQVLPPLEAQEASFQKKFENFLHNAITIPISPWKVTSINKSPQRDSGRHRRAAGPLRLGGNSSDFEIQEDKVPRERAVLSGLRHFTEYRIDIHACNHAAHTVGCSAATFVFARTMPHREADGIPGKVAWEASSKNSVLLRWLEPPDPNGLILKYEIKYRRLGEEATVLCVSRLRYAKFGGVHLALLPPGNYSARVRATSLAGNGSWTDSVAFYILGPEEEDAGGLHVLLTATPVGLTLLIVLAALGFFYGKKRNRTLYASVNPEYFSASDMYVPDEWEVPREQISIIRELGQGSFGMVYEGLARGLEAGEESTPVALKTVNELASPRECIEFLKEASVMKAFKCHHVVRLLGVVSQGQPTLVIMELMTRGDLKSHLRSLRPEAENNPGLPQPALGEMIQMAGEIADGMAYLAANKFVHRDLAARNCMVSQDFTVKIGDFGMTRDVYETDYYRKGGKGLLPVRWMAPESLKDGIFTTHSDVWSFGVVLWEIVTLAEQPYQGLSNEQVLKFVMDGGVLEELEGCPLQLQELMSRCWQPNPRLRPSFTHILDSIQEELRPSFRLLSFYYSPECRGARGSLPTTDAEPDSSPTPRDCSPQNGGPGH
UniProt P23458: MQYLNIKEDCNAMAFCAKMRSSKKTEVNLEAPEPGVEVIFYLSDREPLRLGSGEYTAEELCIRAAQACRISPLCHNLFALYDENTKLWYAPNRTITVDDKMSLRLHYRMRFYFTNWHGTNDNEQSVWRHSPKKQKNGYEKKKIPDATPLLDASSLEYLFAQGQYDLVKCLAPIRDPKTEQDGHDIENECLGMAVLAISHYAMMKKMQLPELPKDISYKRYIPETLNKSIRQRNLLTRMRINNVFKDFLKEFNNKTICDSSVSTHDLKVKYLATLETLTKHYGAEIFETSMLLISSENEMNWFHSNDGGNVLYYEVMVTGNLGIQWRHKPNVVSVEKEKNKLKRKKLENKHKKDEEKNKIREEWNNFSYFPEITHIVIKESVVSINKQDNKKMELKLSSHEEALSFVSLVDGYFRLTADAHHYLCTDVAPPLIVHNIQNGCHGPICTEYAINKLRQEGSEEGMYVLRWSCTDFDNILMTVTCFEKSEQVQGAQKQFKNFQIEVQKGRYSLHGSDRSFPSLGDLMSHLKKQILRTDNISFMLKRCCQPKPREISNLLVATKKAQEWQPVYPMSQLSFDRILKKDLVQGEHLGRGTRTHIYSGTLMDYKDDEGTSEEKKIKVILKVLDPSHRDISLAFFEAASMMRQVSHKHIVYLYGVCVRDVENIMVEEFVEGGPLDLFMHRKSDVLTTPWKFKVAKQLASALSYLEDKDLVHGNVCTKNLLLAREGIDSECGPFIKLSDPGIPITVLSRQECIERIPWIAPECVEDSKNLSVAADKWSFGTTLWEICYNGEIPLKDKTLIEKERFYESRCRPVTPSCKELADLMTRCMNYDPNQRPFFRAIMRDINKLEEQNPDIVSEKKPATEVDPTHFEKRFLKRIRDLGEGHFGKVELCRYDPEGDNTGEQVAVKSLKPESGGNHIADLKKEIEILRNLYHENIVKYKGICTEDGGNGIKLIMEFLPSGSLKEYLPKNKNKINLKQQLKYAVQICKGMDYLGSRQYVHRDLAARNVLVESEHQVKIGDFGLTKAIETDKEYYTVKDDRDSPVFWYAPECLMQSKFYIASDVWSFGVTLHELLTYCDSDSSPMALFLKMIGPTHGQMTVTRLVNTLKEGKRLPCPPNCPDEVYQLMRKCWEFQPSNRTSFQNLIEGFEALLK
UniProt P06239: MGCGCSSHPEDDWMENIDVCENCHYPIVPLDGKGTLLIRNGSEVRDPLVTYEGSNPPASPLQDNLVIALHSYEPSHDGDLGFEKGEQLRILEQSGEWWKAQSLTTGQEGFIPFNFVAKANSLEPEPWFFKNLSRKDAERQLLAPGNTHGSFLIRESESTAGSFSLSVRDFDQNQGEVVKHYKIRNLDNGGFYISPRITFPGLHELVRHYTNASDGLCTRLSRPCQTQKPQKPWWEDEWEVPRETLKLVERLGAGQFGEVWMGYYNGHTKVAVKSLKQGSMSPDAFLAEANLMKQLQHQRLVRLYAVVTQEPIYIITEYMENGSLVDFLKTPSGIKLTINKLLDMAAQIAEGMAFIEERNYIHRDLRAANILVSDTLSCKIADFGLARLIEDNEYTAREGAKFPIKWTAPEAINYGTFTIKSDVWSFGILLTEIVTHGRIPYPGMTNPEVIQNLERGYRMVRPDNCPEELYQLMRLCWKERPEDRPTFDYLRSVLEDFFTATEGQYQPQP
UniProt P53667: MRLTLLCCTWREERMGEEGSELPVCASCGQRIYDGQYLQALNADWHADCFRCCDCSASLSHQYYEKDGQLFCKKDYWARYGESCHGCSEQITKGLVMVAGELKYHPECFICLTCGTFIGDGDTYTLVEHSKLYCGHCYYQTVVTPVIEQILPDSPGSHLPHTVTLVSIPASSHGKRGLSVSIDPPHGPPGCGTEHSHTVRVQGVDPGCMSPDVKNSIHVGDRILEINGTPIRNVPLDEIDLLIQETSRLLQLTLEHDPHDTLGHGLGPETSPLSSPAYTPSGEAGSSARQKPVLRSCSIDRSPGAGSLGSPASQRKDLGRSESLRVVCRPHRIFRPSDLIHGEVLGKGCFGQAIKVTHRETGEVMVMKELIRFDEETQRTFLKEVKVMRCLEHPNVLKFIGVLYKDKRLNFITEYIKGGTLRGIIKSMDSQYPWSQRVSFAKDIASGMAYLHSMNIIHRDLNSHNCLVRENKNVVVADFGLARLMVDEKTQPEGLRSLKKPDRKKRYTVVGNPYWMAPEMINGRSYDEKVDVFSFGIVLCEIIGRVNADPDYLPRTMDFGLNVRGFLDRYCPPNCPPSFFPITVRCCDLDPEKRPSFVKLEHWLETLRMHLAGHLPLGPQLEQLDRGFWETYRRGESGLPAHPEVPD
UniProt P53671: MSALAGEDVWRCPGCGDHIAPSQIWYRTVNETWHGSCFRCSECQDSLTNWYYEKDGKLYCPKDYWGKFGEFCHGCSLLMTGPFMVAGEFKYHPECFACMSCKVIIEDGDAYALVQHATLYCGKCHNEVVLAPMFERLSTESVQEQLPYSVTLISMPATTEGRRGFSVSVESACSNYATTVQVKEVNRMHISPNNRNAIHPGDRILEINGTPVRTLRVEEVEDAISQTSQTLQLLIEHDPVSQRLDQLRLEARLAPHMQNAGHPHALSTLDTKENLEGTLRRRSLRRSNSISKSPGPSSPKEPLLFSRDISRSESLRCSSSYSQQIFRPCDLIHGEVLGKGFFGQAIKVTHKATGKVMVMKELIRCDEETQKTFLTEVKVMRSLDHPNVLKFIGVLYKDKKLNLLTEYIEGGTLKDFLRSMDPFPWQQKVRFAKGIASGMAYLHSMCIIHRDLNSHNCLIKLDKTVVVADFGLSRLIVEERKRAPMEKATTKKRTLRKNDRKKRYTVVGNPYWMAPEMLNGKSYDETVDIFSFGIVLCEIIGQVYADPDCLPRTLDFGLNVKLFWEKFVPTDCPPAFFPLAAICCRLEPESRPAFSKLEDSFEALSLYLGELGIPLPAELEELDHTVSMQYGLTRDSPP
UniProt P06241, whole entry, looked up: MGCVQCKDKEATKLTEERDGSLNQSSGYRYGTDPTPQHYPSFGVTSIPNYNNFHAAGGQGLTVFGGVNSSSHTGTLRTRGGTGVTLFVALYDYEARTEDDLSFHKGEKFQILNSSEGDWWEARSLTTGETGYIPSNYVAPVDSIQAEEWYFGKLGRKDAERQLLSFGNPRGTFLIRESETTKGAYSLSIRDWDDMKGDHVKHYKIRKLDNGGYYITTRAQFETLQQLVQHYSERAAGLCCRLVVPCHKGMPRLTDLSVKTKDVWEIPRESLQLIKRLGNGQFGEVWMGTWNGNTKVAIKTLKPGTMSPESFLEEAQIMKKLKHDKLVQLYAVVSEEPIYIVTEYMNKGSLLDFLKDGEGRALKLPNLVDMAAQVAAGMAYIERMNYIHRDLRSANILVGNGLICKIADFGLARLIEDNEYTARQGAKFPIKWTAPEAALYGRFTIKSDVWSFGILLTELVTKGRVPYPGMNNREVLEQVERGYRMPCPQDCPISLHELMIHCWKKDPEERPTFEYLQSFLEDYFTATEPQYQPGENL

Assays:
Assay in all cases: number of time points (of 5) at which kinase-Nluc abundance scored as decreased, DMSO-normalised (count); higher = more persistent destabilization
Details in all cases: K562; 2-18 h
[1] = target: FLT3 (UniProt P36888)
[2] = target: GSK3A (UniProt P49840)
[3] = target: HER2 (UniProt P04626)
[4] = target: INSRR (UniProt P14616)
[5] = target: IRAK3 (UniProt Q9Y616)
[6] = target: JAK1 (UniProt P23458)
[7] = target: LCK (UniProt P06239)
[8] = target: LIMK1 (UniProt P53667)
[9] = target: LIMK2 (UniProt P53671)
[10] = target: FYN (UniProt P06241)

Measured: number of time points

COc1ccc(Br)c(C=O)c1O [6-Bromo-2-hydroxy-3-methoxybenzaldehyde] (10 µM)
not listed: [10]
0: all other assays above

O=C(O)c1c[nH]c2cc(Cl)c(-c3ccc(C4(O)CCC4)cc3)cc12 (10 µM)
0: all assays above

CCc1c(C(=O)NNC(=O)[C@H](O)c2cc(F)cc(F)c2)ccc(O)c1C (10 µM)
0: all assays above

CN1CCN(Cc2ccc(-c3cn(C4CCC(O)CC4)c4nc(NCCC5CC5)ncc34)cc2)CC1 (stereo unspecified) (2.5 µM)
3: [10] | [9]
4: [8]
0: [2] | [6] | [7]
2: [4] | [5]
1: [3]

CN1C(=O)N[C@@H](Cc2c[nH]c3c(Cl)cccc23)C1=O [Necrostatin 2 (S enantiomer)] (10 µM)
0: all assays above

O=S(=O)(c1ccc(O)cc1O)N1Cc2cc(O)cc(O)c2C1 (10 µM)
1: [7]
0: all other assays above

NCCNS(=O)(=O)c1ccc(Cl)c2ccncc12 [CKI-7 (free base)] (10 µM)
0: all assays above

N#Cc1cnc(Nc2cc(NC[C@H]3CNCCO3)c(C(F)(F)F)cn2)cn1 (10 µM)
2: [10] | [6]
1: [4] | [9]
3: [3]
not listed: [1]
0: all other assays above

Cc1cccc(-c2nn3c(c2-c2ccnc4ccc(C(N)=O)cc24)CCC3)n1 [Galunisertib] (10 µM)
0: all assays above

COc1cc2ncnc(Nc3cc(Br)c(O)c(Br)c3)c2cc1OC (2.5 µM)
0: all assays above

Cc1nc(Nc2cnn(C3CCNCC3)c2)nc2c1N(C)C(=O)c1cc3ccccc3cc1N2C (2.5 µM)
0: all assays above

COc1ccc(CN2CCC(c3ccc4nc(C(=O)N5CCN(Cc6ccc(C(F)(F)F)cc6)CC5)[nH]c4c3)CC2)cn1 (2.5 µM)
1: [10]
2: [5]
0: all other assays above

Cc1ccc(NC(=O)N2CCN(c3nc(N)nc4sc(-c5cccnc5)nc34)CC2)cc1 [PI4KIII beta inhibitor 3] (10 µM)
0: all assays above

Nc1ccc(O)c(C(=O)O)c1 [5-Aminosalicylic Acid] (10 µM)
0: all assays above

Nc1ccc(-c2cccc(C(=O)Nc3cnc4nc(N5CCOCC5)oc4c3)n2)cn1 (10 µM)
1: [2]
0: all other assays above

CN1CCC(Nc2nc(Nc3ccc(Oc4ccccc4)cc3)c3c(=O)[nH]cc(Br)c3n2)CC1 (2.5 µM)
5: [8]
4: [9]
3: [10]
not listed: [1]
0: all other assays above

CN1CCN(Cc2ccc(-c3cnc4[nH]cc(-c5ccc6[nH]ccc6c5)c4c3)cc2)CC1 (2.5 µM)
3: [5]
2: [10] | [8]
0: all other assays above

CC1=C(C#N)C(c2ccc3[nH]nc(C)c3c2)C(C#N)=C(C)N1 (10 µM)
0: all assays above

CCCCNc1ncc2c(-c3ccc(F)cc3)nn(CC3CCC(N)CC3)c2n1 (stereo unspecified) (2.5 µM)
1: [10]
2: [4]
0: all other assays above

CS(=O)(=O)c1cccc(CNc2nc(Nc3ccc4c(c3)CCC(=O)N4)ncc2C(F)(F)F)c1 (10 µM)
0: all assays above

O=C1NC(=O)C(Cc2c[nH]c3c(Cl)cccc23)N1 (stereo unspecified) [Necroptosis-IN-1] (10 µM)
0: all assays above

O=C1OC(COc2ccccc2[N+](=O)[O-])CC1Cc1ccccc1 (stereo unspecified) (10 µM)
0: all assays above

COc1ccc(-c2cc(=O)c3c(O)cc(O)cc3o2)cc1-c1c(O)cc(O)c2c(=O)cc(-c3ccc(O)cc3)oc12 [Bilobetin] (2.5 µM)
0: all assays above

O=C(O)/C=C(\CCc1ccc(Cl)cc1)c1ccccc1 (10 µM)
0: all assays above

COc1ccc2cc1Oc1ccc(cc1)C[C@H]1c3cc(c(OC)cc3CCN1C)Oc1c(O)c(OC)cc3c1[C@H](C2)N(C)CC3 [Fangchinoline] (2.5 µM)
not listed: [8]
0: all other assays above

S=C(NCc1ccc2c(c1)OCO2)N1CCN(c2ncnc3c2oc2ccccc23)CC1 [Amuvatinib] (2.5 µM)
0: all assays above

CN1CCC(Nc2ccc(C(=O)Nc3cc(-c4ccc5c(c4)OCO5)[nH]n3)cc2)CC1 (10 µM)
3: [8]
4: [10] | [6]
0: all other assays above

Cc1cncc2cccc(S(=O)(=O)N3CCCNC[C@@H]3C)c12 [H-1152 (dihydrochloride)] (10 µM)
not listed: [7]
0: all other assays above

CCOC(=O)c1c(Nc2ccccc2Cl)oc(/C=C2\C=Nc3ncccc32)c1O (10 µM)
not listed: [10]
0: all other assays above

COc1cc2nc(NC3CC3)nc(NC3CCN(C(C)C)CC3)c2cc1OC (10 µM)
3: [10]
2: [8]
0: all other assays above

C[C@@H]1COC(Nc2ccc3ncnc(Nc4ccc(OCc5nccs5)c(Cl)c4)c3c2)=N1 [Varlitinib] (10 µM)
2: [3]
5: [1]
4: [5]
not listed: [6]
0: all other assays above

CO[C@@H]1[C@H](N(C)C(=O)c2ccccc2)C[C@H]2O[C@]1(C)n1c3ccccc3c3c4c(c5c6ccccc6n2c5c31)C(=O)NC4 [Midostaurin] (2.5 µM)
0: [2] | [6] | [7] | [8]
not listed: [1]
1: all other assays above

Cc1cc2c(F)c(Oc3ncnn4cc(OC[C@@H](C)OC(=O)[C@H](C)N)c(C)c34)ccc2[nH]1 [Brivanib (alaninate)] (10 µM)
0: all assays above

O=c1c(O)c(-c2ccc(O)c(O)c2)oc2cc(O)c(O)c(O)c12 [Quercetagetin] (10 µM)
0: all assays above
